Values from PubChem BioAssay AID1159578 (Peter MacCallum Cancer Centre, 2015).
Screen: 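siRNA pools altering how lymphatic endothelial cells close a scratch wound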 (primary screen). Cell system: human lymphatic endothelial cells. Reagents: siRNA pool against human genes, 40 nM. Time to read-out: 48 h after transfection. Measured: 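Cells stained with dye and imaged after a scratch; covered wound area and nuclei counted, duplicates averaged, migration set against mock wells and turned into a robust z-score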. Scale: migration robust z-score: higher = faster migration into the scratch; nuclei per well: higher = more cells in the well. Active means: 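Pools averaging fewer than 3300 nuclei are never called; remaining pools count as changed when migration robust z lies outside -2 to 2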. Calls: active = migration changed; inactive = no migration change, or too few cells.
In all, the deposit lists about 18,000 reagents; shown is an unselected part. About 1,030 of them (5.7%) were called active. 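Inactive calls also include pools with fewer than 3300 nuclei, whose migration was not assessed.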 The raw values are shown without normalisation. Unmarked entries are inactive. Further read-outs or replicates are left out here. No sequences are given here.

| Gene | migration robust z-score | nuclei per well, duplicate mean |
| --- | --- | --- |
| APOB | -0.78 | 3570 |
| USP53 | 0.13 | 5525 |
| NPTXR | -0.48 | 5256 |
| ANXA7 | -1.58 | 6830 |
| TMUB2 | 0.48 | 6219 |
| PIPOX | -1.34 | 5344 |
| HEBP1 | 2.4 (active) | 6445 |
| LRRC10 | 0.5 | 5398 |
| APOA1 | -0.57 | 5781 |
| HS3ST4 | -0.05 | 4514 |
| PLPP4 | -0.62 | 4662 |
| EIF3B | 0.05 | 6548 |
| TSLIG3B | -0.75 | 6693 |
| ACSM1 | -0.83 | 4733 |
| P2RX1 | -1.5 | 5396 |
| EEF1AKMT1 | 0.78 | 6266 |
| SNTB1 | -0.68 | 5006 |

Entries listed so far whose gene name starts with T or t:
| Gene | migration robust z-score | nuclei per well, duplicate mean |
| --- | --- | --- |
| TMUB2 | 0.48 | 6219 |
| TSLIG3B | -0.75 | 6693 |

The list goes on:
| Gene | migration robust z-score | nuclei per well, duplicate mean |
| --- | --- | --- |
| SEH1L | -0.11 | 6152 |
| DNAAF10 | 0.64 | 7073 |
| FXYD7 | -1.84 | 4604 |
| XPC | 0.27 | 7176 |
| C9orf40 | -0.73 | 5326 |
| JPH1 | 0.7 | 6632 |
| HSFY1 | -0.93 | 6267 |
| MAGEA12 | -0.79 | 5275 |
| FOXI2 | 0.43 | 5574 |
| TEX15 | -0.76 | 5284 |
| TSFM | 0.18 | 7216 |
| SERINC3 | 1.19 | 5990 |
| ELK4 | 0.05 | 5622 |
| EXOSC6 | -0.24 | 4186 |
| ARHGEF1 | 1.2 | 5007 |
| SUPT3H | 0.42 | 5436 |
| RAB5B | -0.42 | 7392 |
| PIK3C2B | -0.8 | 4950 |
| STAP1 | 0.12 | 6106 |
| SPAG11A | 0.26 | 5382 |
| IK | -1.51 | 4070 |
| NPR1 | 1.29 | 5382 |
